Reference: patent US20160303189A1, “Applications of Recombined Ganoderma Lucidum Immunoregulation Protein in Preparing Drugs for Treating Tissue Fibrosis” (priority 2014, published 2016)
At least one structure is not confirmed: it was looked up by name or label, or the drawing left a doubt.

System: BLM-induced pulmonary fibrosis
Assay: Effect of rLZ-8 on BLM-induced pulmonary fibrosis of mice, Szapiel grading
Format: in vivo
Conditions: group F: dexamethasone 4 mg/kg
Description: Experiment groups: there were 7 groups in the experiment and 12 mice in each group. The groups were a saline group (group A), a model group (group B), a low treatment dose group (group C), a medium dose group (group D), a high dose group (group E), a positive control group (group F) and an administration group one week after modeling (group G). The process of modeling was the same as the embodiment 1.
Treating process: groups B, C, D, E, F and G all adopted low BLM dose for modeling. Group A and Group B were injected with saline for serving as contrast groups; Groups C, D and E were injected with rLZ-8 each day for treatment. Mice in these groups were weighed every 3 days and drugs were administrated according to weights of the mice. The dose for Group C was 3.84375 μg/kg, the dose for Group D was 7.6875 μg/kg, the dose for Group E was 19.21875 μg/kg, Group F were injected with positive drug dexamethasone 4 mg/kg, Group G were injected with rLZ-8 for treatment 1 week after modeling and the dose was 7.6875 μg/kg.
On the 14th day and the 21st day, 6 mice were randomly picked and killed in each group. Lungs of the mice were taken out to watch the color of the lungs, if the surface was intact or not, and the changes in the lung surface; parts of the lung tissue were paraffin sectioned and HE stained to be examined histologically; other parts were done with RT-PCR to examine the RNA level. […]

For `C[C@@H]1C[C@H]2[C@@H]3CCC4=CC(=O)C=C[C@]4(C)[C@@]3(F)[C@@H](O)C[C@]2(C)[C@@]1(O)C(=O)CO` [dexamethasone], the “cured cases (absence of fibrosis)” value was “no cured cases were observed” and the “grade of lung tissue fibrosis (HE stain), in words” value was “mostly medium, with some of them showing grades mild or severe”.
